The values that follow come from publication doi:10.1101/830166.

Amino acid sequences for entries named in this document (tags omitted). A change or cut given only in a name is not applied to a line headed by its entry. Residues count along the entry.
UniProt P61006: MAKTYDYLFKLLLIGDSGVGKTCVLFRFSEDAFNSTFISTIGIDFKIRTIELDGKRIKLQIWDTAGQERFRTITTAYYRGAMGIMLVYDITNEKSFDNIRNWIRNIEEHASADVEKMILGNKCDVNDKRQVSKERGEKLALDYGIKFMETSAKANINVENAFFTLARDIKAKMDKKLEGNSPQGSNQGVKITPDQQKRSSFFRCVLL
UniProt Q5IJ48: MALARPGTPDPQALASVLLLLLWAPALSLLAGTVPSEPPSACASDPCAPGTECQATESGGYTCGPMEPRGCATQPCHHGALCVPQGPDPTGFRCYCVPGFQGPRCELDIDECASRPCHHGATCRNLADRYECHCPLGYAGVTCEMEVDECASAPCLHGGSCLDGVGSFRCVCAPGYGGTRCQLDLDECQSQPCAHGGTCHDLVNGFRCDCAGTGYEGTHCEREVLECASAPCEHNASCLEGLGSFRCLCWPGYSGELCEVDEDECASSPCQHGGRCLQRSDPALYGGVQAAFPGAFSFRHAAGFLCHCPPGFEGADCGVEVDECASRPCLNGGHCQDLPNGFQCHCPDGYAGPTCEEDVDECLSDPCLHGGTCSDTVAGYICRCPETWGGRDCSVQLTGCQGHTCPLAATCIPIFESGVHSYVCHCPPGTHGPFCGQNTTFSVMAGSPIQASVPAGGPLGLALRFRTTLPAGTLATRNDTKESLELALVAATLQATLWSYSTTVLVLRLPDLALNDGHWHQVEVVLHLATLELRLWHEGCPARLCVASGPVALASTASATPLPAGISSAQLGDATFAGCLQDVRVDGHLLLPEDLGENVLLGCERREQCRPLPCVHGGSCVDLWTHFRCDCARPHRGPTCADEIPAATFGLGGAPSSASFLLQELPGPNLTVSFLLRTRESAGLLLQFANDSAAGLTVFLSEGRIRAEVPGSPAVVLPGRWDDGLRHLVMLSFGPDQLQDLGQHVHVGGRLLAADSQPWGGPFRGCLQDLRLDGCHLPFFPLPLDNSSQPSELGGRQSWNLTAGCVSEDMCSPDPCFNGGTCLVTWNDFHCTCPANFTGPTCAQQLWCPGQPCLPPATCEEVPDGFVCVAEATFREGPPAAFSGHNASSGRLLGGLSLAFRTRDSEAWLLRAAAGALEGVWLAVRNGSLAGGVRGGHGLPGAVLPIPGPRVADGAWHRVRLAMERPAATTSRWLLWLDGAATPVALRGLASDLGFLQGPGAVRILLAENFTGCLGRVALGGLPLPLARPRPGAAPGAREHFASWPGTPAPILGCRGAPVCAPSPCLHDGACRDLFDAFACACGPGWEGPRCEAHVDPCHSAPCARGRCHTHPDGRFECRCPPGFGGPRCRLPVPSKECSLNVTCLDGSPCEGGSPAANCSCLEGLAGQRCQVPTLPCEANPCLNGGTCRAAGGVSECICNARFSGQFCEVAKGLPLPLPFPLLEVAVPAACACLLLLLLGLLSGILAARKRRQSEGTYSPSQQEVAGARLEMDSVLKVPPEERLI
biotinylated peptide mimicking the cytoplasmic part of CRB2 (CRB2 cyt: amino-acids 1249 to 1285): residues 1249-1285 of Q5IJ48

No constants are given. Whether binding was seen depends on the method and setting. In cells and extracts the contact can be indirect. Some results given as binding are weak or reduced against the parent protein; the word gives no strength. For part of these data: Tags and fused reporters may be left off the sequences shown.

One experiment deals with human GFP∷RAB8A (human) (UniProt P61006). The experiment is described as follows: co-IP.
For experiment [1], the target named is biotinylated peptide mimicking the cytoplasmic part of CRB2 (CRB2 cyt: amino-acids 1249 to 1285) (human) (UniProt Q5IJ48). The experiment is described as follows: pull-down.

Consider AU1∷CRB2 (from UniProt Q5IJ48 29-1285), for which the binding result with human GFP∷RAB8A (human) was “binds weakly”.

B1: PALS1 (Protein Associated with Lin Seven) (protein, UniProt Q8N3R9 1-675)
chain: MTTSHMNGHVTEESDSEVKNVDLASPEEHQKHREMAVDCPGDLGTRMMPIRRSAQLERIRQQQEDMRRRREEEGKKQELDLNSSMRLKKLAQIPPKTGIDNPMFDTEEGIVLESPHYAVKILEIEDLFSSLKHIQHTLVDSQSQEDISLLLQLVQNKDFQNAFKIHNAITVHMNKASPPFPLISNAQDLAQEVQTVLKPVHHKEGQELTALLNTPHIQALLLAHDKVAEQEMQLEPITDERVYESIGQYGGETVKIVRIEKARDIPLGATVRNEMDSVIISRIVKGGAAEKSGLLHEGDEVLEINGIEIRGKDVNEVFDLLSDMHGTLTFVLIPSQQIKPPPAKETVIHVKAHFDYDPSDDPYVPCRELGLSFQKGDILHVISQEDPNWWQAYREGDEDNQPLAGLVPGKSFQQQREAMKQTIEEDKEPEKSGKLWCAKKNKKKRKKVLYNANKNDDYDNEEILTYEEMSLYHQPANRKRPIILIGPQNCGQNELRQRLMNKEKDRFASAVPHTTRSRRDQEVAGRDYHFVSRQAFEADIAAGKFIEHGEFEKNLYGTSIDSVRQVINSGKICLLSLRTQSLKTLRNSDLKPYIIFIAPPSQERLRALLAKEGKNPKPEELREIIEKTREMEQNNGHYFDTAIVNSDLDKAYQELLRLINKLDTEPQWVPSTWLR
On to B1, for which the binding entry in experiment [1] is “binds”.

B2: HA∷PAR6α (protein, UniProt Q9NPB6 1-346)
chain: MARPQRTPARSPDSIVEVKSKFDAEFRRFALPRASVSGFQEFSRLLRAVHQIPGLDVLLGYTDAHGDLLPLTNDDSLHRALASGPPPLRLLVQKRAEADSSGLAFASNSLQRRKKGLLLRPVAPLRTRPPLLISLPQDFRQVSSVIDVDLLPETHRRVRLHKHGSDRPLGFYIRDGMSVRVAPQGLERVPGIFISRLVRGGLAESTGLLAVSDEILEVNGIEVAGKTLDQVTDMMVANSHNLIVTVKPANQRNNVVRGASGRLTGPPSAGPGPAEPDSDDDSSDLVIENRQPPSSNGLSQGPPCWDLHPGCRHPGTRSSLPSLDDQEQASSGWGSRIRGDGSGFSL
Take B2: the binding result in experiment [1] was “binds”.
